# Data taken from paper doi:10.1101/2022.01.18.476780.
# The chains behind the UniProt entries cited, without tags or fusion partners. Residues count along the entry.
# UniProt P48431, 39-118 N46A: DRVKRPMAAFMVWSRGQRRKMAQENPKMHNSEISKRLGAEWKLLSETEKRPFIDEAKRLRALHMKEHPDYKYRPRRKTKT
# UniProt P48431, 39-118 Y108A: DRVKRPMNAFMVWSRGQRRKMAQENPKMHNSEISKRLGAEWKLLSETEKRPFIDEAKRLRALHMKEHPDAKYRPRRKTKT
# UniProt P48431, 39-118: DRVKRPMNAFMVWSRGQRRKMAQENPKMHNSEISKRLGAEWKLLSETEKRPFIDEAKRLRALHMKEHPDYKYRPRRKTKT
# UniProt P48431, 39-118 R43A: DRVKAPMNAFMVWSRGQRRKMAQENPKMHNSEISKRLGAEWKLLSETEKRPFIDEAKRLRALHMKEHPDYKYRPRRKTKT
# UniProt P48431, 39-118 Y110A: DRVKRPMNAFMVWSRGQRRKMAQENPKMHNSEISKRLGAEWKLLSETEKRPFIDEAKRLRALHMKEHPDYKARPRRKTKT
# Tests used:
# Assay in all cases: EMSA
# Conditions in all cases: residues 39-118
# [1] = biological target: Sox2 HMG N10A N46A (human) (UniProt P48431)
# [2] = biological target: Sox2 HMG Y72A Y108A (human) (UniProt P48431)
# Sox2 HMG DBD WT (human) = Sox2 HMG DBD WT (human) (UniProt P48431)
# [3] = biological target: Sox2 HMG R7A R43A (human) (UniProt P48431)
# [4] = biological target: Sox2 HMG Y74A Y110A (human) (UniProt P48431)
sequence,measurement,setting,value
TGGAGAATCCCGGTGCCGAGGCCGCTCAATTGGTCGTAGACAGCTCTAGCACCGCTTAAACGCACGTACGCTTTGTTTGGATGCTAATAACCGCCAAGGGGATTACTCCCTAGTCTCCAGGCACGTGTGGTTACGAGGCTATCGT (double strand) [DNA 2RF],Kd,[1],19 nM
same,Kd,[2],3.5 nM
same,Kd,Sox2 HMG DBD WT (human),3.3 nM
same,Kd,[3],4.4 nM
same,Kd,[4],5.6 nM

# Construct, isoform or probe ends are uncertain for at least one entry.
